# Assay results from patent US11078450B2, “Material containing solid bleaching agent, and detergent composition” (SHIKOKU CHEMICALS CORPORATION, priority 2016, dated 2021).
# Test: Stability test 1 (storage test), effective oxygen retention rate
# Details: uncoated solid bleaching agent (before coating)
smiles,measurement,value
O=S(=O)(O)O.O=S(=O)(O)OO.[K+].[K+].[K+].[K+].[K+] [Peroxysulfuric acid-sulfuric acid-penta-potassium salt],"Stability test 1: before coating, effective oxygen retention rate (%)",3%
